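Plate-reader measure of the Venus reporter marking one vaccinia stage in infected cells (the cell line is not named here); read time unknown. The test concentration is not given here. Percent change in Venus reporter signal; lower (more negative) values mean stronger inhibition of that viral stage.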

Values are in %. How 0% and 100% were set is not given here. Common to all entries: measured here: Venus reporter, other viral stage. This is a side read-out of the assay, for part of the compounds, not drawn at random.

- CO[C@@H](CN(C)S(=O)(=O)c1ccc(C)cc1)[C@@H](C)CN([C@H](C)CO)S(=O)(=O)c1cccc(Cl)c1 | activity change (Venus) -40.74%
- COc1ccccc1-c1ccc2c(c1)[C@@H]1[C@@H](CCN1C(=O)C1CCC1)[C@H](CO)N2 | activity change (Venus) -33.07%
- C[C@@H]1CN([C@H](C)CO)C(=O)c2c(c3ccccc3n2C)-c2ccccc2CO[C@H]1CN(C)Cc1ccc(F)cc1 | activity change (Venus) -52.7%
- COc1ccccc1S(=O)(=O)N(C)C[C@H]1Oc2cc(Br)ccc2S(=O)(=O)N([C@H](C)CO)C[C@H]1C | activity change (Venus) -45.91%
- COc1cccc(-c2ccc3c(c2)O[C@@H](CN(C)Cc2ccncc2)[C@H](C)CN([C@@H](C)CO)S3(=O)=O)c1 | activity change (Venus) -32.45%
- Cc1ccc(S(=O)(=O)Nc2ccc3c(c2)C(=O)N([C@@H](C)CO)C[C@H](C)[C@H](CN(C)Cc2ccc(C(F)(F)F)cc2)OCCCC[C@@H](C)O3)cc1 | activity change (Venus) -63.87%
- N#Cc1cccc(-c2ccc(C3[C@H]4CNC[C@@H]3N4Cc3ccc4c(c3)OCO4)cc2)c1 (some centres not stated) | activity change (Venus) -90.3%
- CO[C@H]1CN(C)C(=O)c2cc(NC(=O)c3ccc(Oc4ccccc4)cc3)ccc2OC[C@@H](C)NC[C@H]1C | activity change (Venus) -58.3%
- Cc1noc(C)c1S(=O)(=O)Nc1ccc2c(c1)C(=O)N([C@H](C)CO)C[C@@H](C)[C@H](CN(C)Cc1ccc(Cl)c(Cl)c1)OCCCC[C@@H](C)O2 | activity change (Venus) -50.79%
- C[C@@H]1CN([C@@H](C)CO)C(=O)c2cc(C#CCc3ccccc3)cnc2O[C@H]1CN(C)Cc1ccccc1 | activity change (Venus) -29.78%
- C[C@H](C(=O)N(C)C[C@H]1OCc2ccccc2-c2c(n(C)c3ccccc23)C(=O)N([C@H](C)CO)C[C@H]1C)c1ccccc1 | activity change (Venus) -45.21%
- C[C@H](CO)N1C[C@H](C)[C@H](CN(C)Cc2ccc(Oc3ccccc3)cc2)Oc2ccc(NC(=O)CCC(F)(F)F)cc2C1=O | activity change (Venus) -30.21%
- CC(C)CC#Cc1ccc2c(c1)O[C@H](CN(C)C(=O)Nc1ccccc1F)[C@H](C)CN([C@@H](C)CO)S2(=O)=O | activity change (Venus) -66.93%
- N#C[C@H]1[C@H](c2ccc(-c3cccc(F)c3)cc2)[C@H](CO)N1C(=O)NC1CCCCC1 | activity change (Venus) -53.06%
- CN(C)C(=O)c1cccc(-c2ccc3c(c2)[C@@H]2[C@@H](CCN2S(=O)(=O)c2ccccc2)[C@@H](CO)N3)c1 | activity change (Venus) -32.66%
- C[C@H]1CN([C@@H](C)CO)C(=O)c2c(c3ccccc3n2C)-c2ccccc2CO[C@@H]1CN(C)C(=O)Nc1ccccc1C(F)(F)F | activity change (Venus) -40.5%
- COc1ccccc1NC(=O)N1CC[C@@H]2[C@H]1c1cc(-c3ccccc3)ccc1N(C)[C@H]2CO | activity change (Venus) -65.73%
- CC(C)NC(=O)N(C)C[C@@H]1Oc2cc(C#Cc3ccc(F)cc3)ccc2S(=O)(=O)N([C@H](C)CO)C[C@H]1C | activity change (Venus) -50.31%
- CC(C)CC#Cc1ccc([C@@H]2[C@H](CO)N3CCCCN(C(=O)Cc4ccccn4)C[C@@H]23)cc1 | activity change (Venus) -42.89%
- C[C@H](CO)N1C[C@H](C)[C@H](CN(C)S(=O)(=O)c2ccc(Cl)cc2)Oc2ccc(NS(=O)(=O)c3ccc(Cl)cc3)cc2C1=O | activity change (Venus) -29.32%
- COc1ccc(S(=O)(=O)Nc2ccc3c(c2)C(=O)N([C@H](C)CO)C[C@H](C)[C@@H](CN(C)C(=O)C2CCCCC2)OCCCC[C@H](C)O3)cc1 | activity change (Venus) -42.31%
- C[C@@H]1CN([C@@H](C)CO)C(=O)Cc2cc(NC(=O)C3CC3)ccc2O[C@H]1CN(C)Cc1ccc(Cl)c(Cl)c1 | activity change (Venus) -46.75%

For reference, 2 entries once more:

Cc1noc(C)c1S(=O)(=O)Nc1ccc2c(c1)C(=O)N([C@H](C)CO)C[C@@H](C)[C@H](CN(C)Cc1ccc(Cl)c(Cl)c1)OCCCC[C@@H](C)O2 gave activity change (Venus) -50.79%.
C[C@H](C(=O)N(C)C[C@H]1OCc2ccccc2-c2c(n(C)c3ccccc23)C(=O)N([C@H](C)CO)C[C@H]1C)c1ccccc1 gave activity change (Venus) -45.21%.

From PubChem BioAssay record AID1053133 (Broad Institute, 2014).